Laboratory results as given in US20080280828A1.
These are yes or no findings as the source states them, for the method shown. For part of these data: Binding calls can cover weak binding; strength is not graded here. Sequences can lack the tags named with a protein.

How the values were obtained:
[1] = biological target: rabbit IgG F(ab')2 fragment (ICN) (rabbit); assay: SPR (BIAcore 2000), F(ab')2 immobilised, rIGBPMA as analyte
[2] = biological target: human IgG Fc fragment (ICN) (human); assay: SPR (BIAcore 2000), human Fc immobilised, rIGBPMA 1 mg/ml as analyte
[3] = biological target: human IgG Fc fragment (ICN) (human); assay: SPR (BIAcore 2000), approx 4000 RU human Fc immobilised, rIGBPMA as analyte

B1: recombinant IGBPMA (rIGBPMA), N-terminal 26 amino acid truncated, C-terminal 6-His-tag, expressed in (protein)
chain: YEVYTGRGVTITVDNTQYEIPADLEKIFQKPKGFSVGSLLVALQEKGIPVNVDEKTGVILGITIDKVRVPFPVSIDLRFKLDNQIYLIPRDLAKLITVLEKKGMPSKILFILYTRYGVVPVRDSNGIVVAISFNGKQFKVKPEPLTAVVILGQKFILPRDTRKMVEFVHSKQSHPEIGFIFLKALKSAGFMLINDDDGAMRSIQKGAQIIKLGFEIRIQVIYGKTTYHVPKDLMRLVKDVRSLGPQEIQSVMKQLKAFDVQVKKEGSKLTILFNSVRYEVDLKSGNVKGHHHHHH
[1]
  binding: no binding (tested: 1 mg/ml)
[2]
  binding: binds
[3]
  binding: binds
